No constants are given. Whether binding was seen depends on the method and setting. Some entries that bind do so weakly or less than the wild type.
Molecular target: E2F-1 transcription factor (UniProt Q01094)
Assay: native gel or EMSA; electrophoretic mobility shift assay with antibody supershift; HT1080 clones stably overexpressing E2F-1

Sequences of proteins named here, by UniProt entry; tags and fusion partners are left off. A change or cut given only in a name is not applied to a line headed by its entry.
UniProt Q01094: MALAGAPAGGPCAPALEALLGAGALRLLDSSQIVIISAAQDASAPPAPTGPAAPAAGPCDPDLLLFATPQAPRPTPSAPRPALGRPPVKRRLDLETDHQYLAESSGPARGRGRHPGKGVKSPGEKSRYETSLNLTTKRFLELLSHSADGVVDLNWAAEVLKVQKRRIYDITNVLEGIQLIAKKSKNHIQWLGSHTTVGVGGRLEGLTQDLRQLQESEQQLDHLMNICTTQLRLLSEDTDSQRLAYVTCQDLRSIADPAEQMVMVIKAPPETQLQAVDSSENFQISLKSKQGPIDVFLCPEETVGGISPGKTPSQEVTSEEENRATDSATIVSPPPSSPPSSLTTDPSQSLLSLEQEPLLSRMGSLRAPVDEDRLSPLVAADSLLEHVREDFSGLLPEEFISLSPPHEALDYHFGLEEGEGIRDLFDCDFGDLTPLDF
UniProt Q08999: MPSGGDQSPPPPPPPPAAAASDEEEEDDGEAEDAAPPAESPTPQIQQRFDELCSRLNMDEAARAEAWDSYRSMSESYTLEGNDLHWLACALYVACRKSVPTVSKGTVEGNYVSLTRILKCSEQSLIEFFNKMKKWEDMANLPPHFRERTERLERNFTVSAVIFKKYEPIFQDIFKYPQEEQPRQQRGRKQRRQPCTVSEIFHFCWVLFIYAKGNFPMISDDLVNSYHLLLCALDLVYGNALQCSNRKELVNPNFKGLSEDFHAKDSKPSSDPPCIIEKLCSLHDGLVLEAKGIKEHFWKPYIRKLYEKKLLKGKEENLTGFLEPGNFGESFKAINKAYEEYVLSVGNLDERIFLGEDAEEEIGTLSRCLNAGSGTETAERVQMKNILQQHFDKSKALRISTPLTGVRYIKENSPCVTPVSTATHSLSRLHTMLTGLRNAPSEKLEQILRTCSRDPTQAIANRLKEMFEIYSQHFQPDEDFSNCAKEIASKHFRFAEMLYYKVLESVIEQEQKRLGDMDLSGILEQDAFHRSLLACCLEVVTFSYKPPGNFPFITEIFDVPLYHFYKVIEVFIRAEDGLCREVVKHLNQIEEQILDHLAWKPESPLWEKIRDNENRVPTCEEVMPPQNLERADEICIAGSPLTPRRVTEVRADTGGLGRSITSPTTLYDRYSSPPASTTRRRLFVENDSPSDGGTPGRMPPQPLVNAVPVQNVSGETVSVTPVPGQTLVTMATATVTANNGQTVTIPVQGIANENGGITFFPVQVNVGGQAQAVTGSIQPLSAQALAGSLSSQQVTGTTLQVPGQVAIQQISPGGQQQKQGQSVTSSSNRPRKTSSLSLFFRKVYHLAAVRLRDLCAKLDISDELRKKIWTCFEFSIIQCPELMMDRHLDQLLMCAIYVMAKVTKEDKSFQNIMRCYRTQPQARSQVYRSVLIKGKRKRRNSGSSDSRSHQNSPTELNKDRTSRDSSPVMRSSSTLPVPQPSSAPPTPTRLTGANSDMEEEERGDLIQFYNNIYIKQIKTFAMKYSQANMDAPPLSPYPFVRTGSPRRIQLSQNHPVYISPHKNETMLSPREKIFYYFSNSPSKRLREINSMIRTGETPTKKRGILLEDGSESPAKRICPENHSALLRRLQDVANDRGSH

Molecule: pocket protein p130 (from UniProt Q08999 1-1139)
- binding: binds

B1: pocket protein p107 (protein, UniProt P28749 1-1068)
chain: MFEDKPHAEGAAVVAAAGEALQALCQELNLDEGSAAEALDDFTAIRGNYSLEGEVTHWLACSLYVACRKSIIPTVGKGIMEGNCVSLTRILRSAKLSLIQFFSKMKKWMDMSNLPQEFRERIERLERNFEVSTVIFKKYEPIFLDIFQNPYEEPPKLPRSRKQRRIPCSVKDLFNFCWTLFVYTKGNFRMIGDDLVNSYHLLLCCLDLIFANAIMCPNRQDLLNPSFKGLPSDFHTADFTASEEPPCIIAVLCELHDGLLVEAKGIKEHYFKPYISKLFDRKILKGECLLDLSSFTDNSKAVNKEYEEYVLTVGDFDERIFLGADAEEEIGTPRKFTRDTPLGKLTAQANVEYNLQQHFEKKRSFAPSTPLTGRRYLREKEAVITPVASATQSVSRLQSIVAGLKNAPSDQLINIFESCVRNPVENIMKILKGIGETFCQHYTQSTDEQPGSHIDFAVNRLKLAEILYYKILETVMVQETRRLHGMDMSVLLEQDIFHRSLMACCLEIVLFAYSSPRTFPWIIEVLNLQPFYFYKVIEVVIRSEEGLSRDMVKHLNSIEEQILESLAWSHDSALWEALQVSANKVPTCEEVIFPNNFETGNGGNVQGHLPLMPMSPLMHPRVKEVRTDSGSLRRDMQPLSPISVHERYSSPTAGSAKRRLFGEDPPKEMLMDKIITEGTKLKIAPSSSITAENVSILPGQTLLTMATAPVTGTTGHKVTIPLHGVANDAGEITLIPLSMNTNQESKVKSPVSLTAHSLIGASPKQTNLTKAQEVHSTGINRPKRTGSLALFYRKVYHLASVRLRDLCLKLDVSNELRRKIWTCFEFTLVHCPDLMKDRHLDQLLLCAFYIMAKVTKEERTFQEIMKSYRNQPQANSHVYRSVLLKSIPREVVAYNKNINDDFEMIDCDLEDATKTPDCSSGPVKEERGDLIKFYNTIYVGRVKSFALKYDLANQDHMMDAPPLSPFPHIKQQPGSPRRISQQHSIYISPHKNGSGLTPRSALLYKFNGSPSKSLKDINNMIRQGEQRTKKRVIAIDSDAESPAKRVCQENDDVLLKRLQDVVSERANH
- binding: binds

Source: PMC2363544
